In article PMC5609105:

Columns and labels:
Assay in all cases: EMSA
[1] = biological target: T1, VviDREBA1-7 (VvCBF2) (Vitis vinifera cv. Autumn Royal) (UniProt A0A291NW80); details: no binding or only unspecific binding; 500x unlabeled competitor added before labeled probe; recombinant protein; residues 1-253; protein details: N-terminal His6 (pTrcHisA); label: 3' biotin
T1 sequence (looked up): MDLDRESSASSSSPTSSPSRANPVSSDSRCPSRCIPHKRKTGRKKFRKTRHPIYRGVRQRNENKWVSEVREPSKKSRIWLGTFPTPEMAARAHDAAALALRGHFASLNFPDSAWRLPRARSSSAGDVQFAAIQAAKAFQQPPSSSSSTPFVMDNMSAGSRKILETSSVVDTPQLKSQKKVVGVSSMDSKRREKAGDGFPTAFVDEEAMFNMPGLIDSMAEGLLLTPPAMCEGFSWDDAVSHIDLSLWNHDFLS

[2] = biological target: VviDREBA1-1 (VvCBF4) (Vitis vinifera cv. Autumn Royal) (UniProt A0A411JIL1); details: 500x unlabeled competitor added before labeled probe, recombinant protein, residues 1-218, protein details: N-terminal His6 (pTrcHisA), label: 3' biotin
[3] = biological target: VviDREBA1-6 (VvCBF3) (Vitis vinifera cv. Autumn Royal) (UniProt A0A291NW84); details: no binding or only unspecific binding; 500x unlabeled competitor added before labeled probe; recombinant protein; residues 1-239; protein details: N-terminal His6 (pTrcHisA); label: 3' biotin

| Sequence | binding result [1] | binding result ([2]; abolished by 500x unlabeled probe) | binding result [3] | binding result [2] |
| --- | --- | --- | --- | --- |
| ATCGAGGCCGACATTTCCTGG (double strand) [VviDHN2 CRT probe] | no binding | binds | no binding |  |
| TGCTTGCCGACGCCAATAGA (double strand) [VviDHN2* CRT probe (changed flanks)] |  |  |  | binds more weakly |

The exact form of at least one protein or probe is not confirmed. For some of these results: Negatives hold for the conditions tested. For some of these results: Where a protein sequence is shown, tags need not be part of it. For some of these results: The comparison behind a weaker result is the experiment's own reference, which may not be listed here.
